Laboratory results: paper PMC7985146
Substitutions are numbered along the chain they refer to. No constants are given. Whether binding was seen depends on the method and setting. In cells and extracts the contact can be indirect. Some entries that bind do so weakly or less than the wild type. Tags and fused reporters may be left off the sequences shown.

Sequences of proteins named here, by UniProt entry; tags and fusion partners are left off.
UniProt P63279: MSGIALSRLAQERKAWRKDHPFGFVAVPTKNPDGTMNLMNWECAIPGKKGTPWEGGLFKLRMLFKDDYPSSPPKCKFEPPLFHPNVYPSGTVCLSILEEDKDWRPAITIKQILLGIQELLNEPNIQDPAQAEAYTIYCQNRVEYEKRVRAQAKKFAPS
UniProt P21796: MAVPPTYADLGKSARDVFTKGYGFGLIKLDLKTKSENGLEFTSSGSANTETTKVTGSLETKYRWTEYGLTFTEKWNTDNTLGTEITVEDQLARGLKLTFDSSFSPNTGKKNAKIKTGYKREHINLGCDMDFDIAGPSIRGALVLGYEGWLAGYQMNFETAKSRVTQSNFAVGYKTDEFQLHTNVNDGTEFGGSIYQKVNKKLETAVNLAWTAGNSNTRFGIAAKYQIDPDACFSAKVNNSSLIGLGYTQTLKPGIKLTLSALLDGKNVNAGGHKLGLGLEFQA

How the values were obtained:
[1] = biological target: T1, HA-tagged rat hexokinase 2 K315R (rat) (UniProt P27881); assay: co-IP; 293T cells transfected with HA-tag HK2 WT or mutants; cell lysates precipitated with HA antibody and blotted by VDAC1 antibody (endogenous VDAC1)
T1 sequence: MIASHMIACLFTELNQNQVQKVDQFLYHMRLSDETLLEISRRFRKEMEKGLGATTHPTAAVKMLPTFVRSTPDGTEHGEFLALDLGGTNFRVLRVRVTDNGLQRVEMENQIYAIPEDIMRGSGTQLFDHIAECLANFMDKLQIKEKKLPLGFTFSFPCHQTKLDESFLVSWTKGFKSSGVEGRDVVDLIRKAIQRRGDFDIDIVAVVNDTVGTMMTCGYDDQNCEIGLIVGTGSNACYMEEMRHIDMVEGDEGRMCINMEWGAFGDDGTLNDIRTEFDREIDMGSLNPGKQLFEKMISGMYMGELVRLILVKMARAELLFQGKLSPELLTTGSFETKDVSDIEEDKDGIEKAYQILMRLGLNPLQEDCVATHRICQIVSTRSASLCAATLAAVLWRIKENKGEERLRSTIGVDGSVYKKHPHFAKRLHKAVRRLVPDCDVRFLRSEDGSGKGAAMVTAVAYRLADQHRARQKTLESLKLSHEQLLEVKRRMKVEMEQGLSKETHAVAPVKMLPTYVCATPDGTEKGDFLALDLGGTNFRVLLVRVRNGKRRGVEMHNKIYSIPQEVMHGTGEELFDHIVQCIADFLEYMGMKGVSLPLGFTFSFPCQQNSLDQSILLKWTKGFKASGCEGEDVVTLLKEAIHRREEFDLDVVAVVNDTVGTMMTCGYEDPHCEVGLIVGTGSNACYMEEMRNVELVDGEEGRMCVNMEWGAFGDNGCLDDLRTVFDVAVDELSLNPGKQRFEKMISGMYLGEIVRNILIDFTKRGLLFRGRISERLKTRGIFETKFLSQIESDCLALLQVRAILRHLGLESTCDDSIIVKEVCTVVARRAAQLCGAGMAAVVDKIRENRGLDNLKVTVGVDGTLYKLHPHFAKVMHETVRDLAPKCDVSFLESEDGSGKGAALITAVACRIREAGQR

[2] = biological target: T2, HA-tagged rat hexokinase 2 K315R/K492R double mutant (rat) (UniProt P27881); assay: as above
T2 sequence: T1 sequence with K492R

[3] = biological target: T3, HA-tagged rat hexokinase 2 K492R (rat) (UniProt P27881); assay: as above
T3 sequence: T1 sequence with R315K, K492R

[4] = biological target: T4, HA-tagged rat hexokinase 2, wild-type (rat) (UniProt P27881); assay: as above
T4 sequence: T1 sequence with R315K

Flag-tagged SENP1 = biological target: T5, Flag-tagged SENP1 (UniProt Q9P0U3); assay: co-IP; HEK293T cells transfected with both tagged plasmids (HK2-HA with Flag-Ubc9 or Flag-SENP1); immunoprecipitation and western blotting; which tag was precipitated is not told
T5 sequence: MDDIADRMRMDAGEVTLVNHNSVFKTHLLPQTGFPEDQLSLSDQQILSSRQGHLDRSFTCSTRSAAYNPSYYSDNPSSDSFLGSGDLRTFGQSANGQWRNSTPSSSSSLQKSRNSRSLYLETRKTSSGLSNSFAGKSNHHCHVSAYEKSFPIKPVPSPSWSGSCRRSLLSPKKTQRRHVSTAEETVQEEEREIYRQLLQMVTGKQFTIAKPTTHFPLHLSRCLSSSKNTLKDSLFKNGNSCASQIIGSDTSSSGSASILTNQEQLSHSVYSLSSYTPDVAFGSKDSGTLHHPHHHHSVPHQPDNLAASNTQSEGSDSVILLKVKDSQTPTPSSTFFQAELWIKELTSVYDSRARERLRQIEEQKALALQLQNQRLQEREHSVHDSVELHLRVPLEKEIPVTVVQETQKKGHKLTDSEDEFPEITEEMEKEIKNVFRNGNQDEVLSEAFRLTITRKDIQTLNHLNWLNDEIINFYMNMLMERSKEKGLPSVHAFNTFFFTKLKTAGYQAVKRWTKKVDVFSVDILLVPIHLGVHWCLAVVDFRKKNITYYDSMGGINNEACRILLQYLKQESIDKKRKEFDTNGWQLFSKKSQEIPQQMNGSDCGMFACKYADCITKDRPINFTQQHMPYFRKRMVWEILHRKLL

Flag-tagged UBC9 = Flag-tagged UBC9 (UniProt P63279); assay: as above

Measured: binding

VDAC1 (from UniProt P21796 1-283)
binds: [1] | [2] | [3] | [4]

B1: HA-tagged rat hexokinase 2, wild-type (enzyme, UniProt P27881 1-917)
chain: T1 sequence with R315K
binds: Flag-tagged SENP1 | Flag-tagged UBC9
